Reference: PubChem BioAssay AID1224830 (NIAID, 2016)
Here is one part, drawn at random, of about 18,000 reagents tested. Of all reagents, about 2,900 (16%) were called active. 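Calls are made per well; low scores hint the gene aids the LPS response, high scores that it dampens it.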 Unmarked entries are inactive. Repeated entries: four replicate wells of each siRNA pool. Reagent sequences are not shown.

Purpose: 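Host factors that control LPS-induced TNF expression in human macrophages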 (primary screen)
System: human THP-1 monocytic leukaemia cells, TNF dual-luciferase reporter clone, PMA-differentiated to macrophage-like cells
Reagents: siRNA pool against human genes, 50 nM
Duration: LPS for 4 h, given about 3 days after siRNA transfection
Challenge: bacterial LPS (TLR4 ligand), 10 ng/ml
Read-out: 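Ratio of firefly to renilla light, scaled to the plate median and expressed as a robust z-score per replicate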
Direction: TNF reporter robust z-score: higher = stronger TNF reporter response to LPS
Active means: 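Each well counts as active if its z-score is over 2.8 or under -1.5; controls are left without a call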

Gene	TNF reporter robust z-score
SACK1C (scaffolding CK1 anchoring protein C)	1.87
SACK1C (scaffolding CK1 anchoring protein C)	2.46
SACK1C (scaffolding CK1 anchoring protein C)	2.6
SACK1C (scaffolding CK1 anchoring protein C)	1.8
LYPLA1 (lysophospholipase 1)	-0.42
LYPLA1 (lysophospholipase 1)	0.7
LYPLA1 (lysophospholipase 1)	0.2
LYPLA1 (lysophospholipase 1)	0.99
GALNT8 (polypeptide N-acetylgalactosaminyltransferase 8)	0.54
GALNT8 (polypeptide N-acetylgalactosaminyltransferase 8)	1.47
GALNT8 (polypeptide N-acetylgalactosaminyltransferase 8)	0.74
GALNT8 (polypeptide N-acetylgalactosaminyltransferase 8)	1.03
TMEM141 (transmembrane protein 141)	-0.81
TMEM141 (transmembrane protein 141)	1.52
TMEM141 (transmembrane protein 141)	0.78
TMEM141 (transmembrane protein 141)	-1.21
OR51F1 (olfactory receptor family 51 subfamily F member 1)	0.58
OR51F1 (olfactory receptor family 51 subfamily F member 1)	1.61
OR51F1 (olfactory receptor family 51 subfamily F member 1)	3.49 (active)
OR51F1 (olfactory receptor family 51 subfamily F member 1)	1.21
UPK3B (uroplakin 3B)	-0.22
UPK3B (uroplakin 3B)	0.18
UPK3B (uroplakin 3B)	0.38
DNAJC3 (DnaJ heat shock protein family (Hsp40) member C3)	-0.85
DNAJC3 (DnaJ heat shock protein family (Hsp40) member C3)	0.97
DNAJC3 (DnaJ heat shock protein family (Hsp40) member C3)	-0.05
DNAJC3 (DnaJ heat shock protein family (Hsp40) member C3)	-0.37
BCL2L10 (BCL2 like 10)	-0.01
BCL2L10 (BCL2 like 10)	0.51
BCL2L10 (BCL2 like 10)	0.44
BCL2L10 (BCL2 like 10)	0.27
EIPR1 (EARP complex and GARP complex interacting protein 1)	-0.59
EIPR1 (EARP complex and GARP complex interacting protein 1)	-0.75
EIPR1 (EARP complex and GARP complex interacting protein 1)	-0.14
EIPR1 (EARP complex and GARP complex interacting protein 1)	-0.07
ZNF224 (zinc finger protein 224)	0.16
ZNF224 (zinc finger protein 224)	-0.34
ZNF224 (zinc finger protein 224)	-0.51
ZNF224 (zinc finger protein 224)	-0.16
EXOC5 (exocyst complex component 5)	-0.6
EXOC5 (exocyst complex component 5)	-0.48
EXOC5 (exocyst complex component 5)	-0.98
EXOC5 (exocyst complex component 5)	-0.14
PDCD5 (programmed cell death 5)	-0.96
PDCD5 (programmed cell death 5)	0.89
PDCD5 (programmed cell death 5)	-0.3
PDCD5 (programmed cell death 5)	1.21
ZNF347 (zinc finger protein 347)	-0.11
ZNF347 (zinc finger protein 347)	-0.64
ZNF347 (zinc finger protein 347)	-0.32
ZNF347 (zinc finger protein 347)	-0.66
LYVE1 (lymphatic vessel endothelial hyaluronan receptor 1)	-0.42
LYVE1 (lymphatic vessel endothelial hyaluronan receptor 1)	1.31
LYVE1 (lymphatic vessel endothelial hyaluronan receptor 1)	0.41
LYVE1 (lymphatic vessel endothelial hyaluronan receptor 1)	0.48
CCIN (calicin)	-0.34
CCIN (calicin)	-0.06
CCIN (calicin)	-0.07
CCIN (calicin)	-0.38
LRRC37A3 (leucine rich repeat containing 37 member A3)	-1.47
LRRC37A3 (leucine rich repeat containing 37 member A3)	-0.33
LRRC37A3 (leucine rich repeat containing 37 member A3)	-0.56
LRRC37A3 (leucine rich repeat containing 37 member A3)	-1.07
LRRC75A (leucine rich repeat containing 75A)	1.37
LRRC75A (leucine rich repeat containing 75A)	-0.5
LRRC75A (leucine rich repeat containing 75A)	-0.37
LRRC75A (leucine rich repeat containing 75A)	1.57
ZNF780B (zinc finger protein 780B)	0.35
ZNF780B (zinc finger protein 780B)	1.75
ZNF780B (zinc finger protein 780B)	0.49
ZNF780B (zinc finger protein 780B)	1.09
RPL8 (ribosomal protein L8)	-0.48
RPL8 (ribosomal protein L8)	1.41
RPL8 (ribosomal protein L8)	0.27
RPL8 (ribosomal protein L8)	1.28
MACROD2 (mono-ADP ribosylhydrolase 2)	-0.65
MACROD2 (mono-ADP ribosylhydrolase 2)	0.41
MACROD2 (mono-ADP ribosylhydrolase 2)	-0.47
MACROD2 (mono-ADP ribosylhydrolase 2)	0.07
BICDL1 (BICD family like cargo adaptor 1)	-0.21
BICDL1 (BICD family like cargo adaptor 1)	-0.1
BICDL1 (BICD family like cargo adaptor 1)	0.86
BICDL1 (BICD family like cargo adaptor 1)	-0.63
MAF (MAF bZIP transcription factor)	1.73
MAF (MAF bZIP transcription factor)	1.15
MAF (MAF bZIP transcription factor)	-0.28
MAF (MAF bZIP transcription factor)	0.32
SMARCB1 (SWI/SNF related BAF chromatin remodeling complex subunit B1)	-1.41
SMARCB1 (SWI/SNF related BAF chromatin remodeling complex subunit B1)	-0.6
SMARCB1 (SWI/SNF related BAF chromatin remodeling complex subunit B1)	-0.95
SMARCB1 (SWI/SNF related BAF chromatin remodeling complex subunit B1)	-0.12
ZMYM2 (zinc finger MYM-type containing 2)	-0.22
ZMYM2 (zinc finger MYM-type containing 2)	0.77
ZMYM2 (zinc finger MYM-type containing 2)	-0.07
ZMYM2 (zinc finger MYM-type containing 2)	2.49
ADAMDEC1 (ADAM like decysin 1)	0.86
ADAMDEC1 (ADAM like decysin 1)	0.85
ADAMDEC1 (ADAM like decysin 1)	-0.41
ADAMDEC1 (ADAM like decysin 1)	1.31
MSS51 (MSS51 mitochondrial translational activator)	-1.68 (active)
MSS51 (MSS51 mitochondrial translational activator)	-1.25
MSS51 (MSS51 mitochondrial translational activator)	-0.65
MSS51 (MSS51 mitochondrial translational activator)	2.41
COL5A2 (collagen type V alpha 2 chain)	0
COL5A2 (collagen type V alpha 2 chain)	0.33
COL5A2 (collagen type V alpha 2 chain)	-0.07
COL5A2 (collagen type V alpha 2 chain)	1.02
GRM7 (glutamate metabotropic receptor 7)	0.7
GRM7 (glutamate metabotropic receptor 7)	1.54
GRM7 (glutamate metabotropic receptor 7)	3.08 (active)
GRM7 (glutamate metabotropic receptor 7)	1.23

Active calls (from the list above):
Gene	TNF reporter robust z-score
OR51F1 (olfactory receptor family 51 subfamily F member 1)	3.49 (active)
MSS51 (MSS51 mitochondrial translational activator)	-1.68 (active)
GRM7 (glutamate metabotropic receptor 7)	3.08 (active)
